Source: patent US6255273A, “Hydrofluoropolyether-based azeotropic or near azeotropic compositions” (Ausimont S.p.A., priority 1998, dated 2001)

Assay: environmental characteristics: ODP, GWP, VOC, lifetime
Settings: for ODP: CFC 11 = 1

| Compound | lifetime | ODP |
| --- | --- | --- |
| FC(F)OC(F)(F)C(F)(F)OC(F)F [HFPE2, 1-difluoromethoxy-1,1,2,2-tetrafluoroethyl difluoromethyl ether] | < 10 years | 0 |
| FC(F)OC(F)(F)OC(F)F [HFPE1, difluoromethoxy-bis(difluoromethyl ether)] | < 10 years | 0 |
